Assay results published in patent US20030180306A1 (Pfizer, published 2003).
No constants are given. Whether binding was seen depends on the method and setting. In cells and extracts the contact can be indirect. Some entries that bind do so weakly or less than the wild type. For some of these results: Tags and fused reporters may be left off the sequences shown. One block for each molecule: values may come before it.

Assays:
[1] = biological target: T1, recombinant purified GDF-8 (UniProt O14793 267-375, limits assumed); assay: co-immunoprecipitation with JA16-agarose, anti-propeptide western blot
T1 sequence (looked up): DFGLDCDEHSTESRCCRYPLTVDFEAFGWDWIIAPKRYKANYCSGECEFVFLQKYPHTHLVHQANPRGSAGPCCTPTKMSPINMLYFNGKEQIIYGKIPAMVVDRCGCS

[2] = biological target: T2, mature GDF-8 from pooled normal human serum (human) (UniProt O14793); assay: co-purification with GDF-8 on JA16-agarose from human serum, nanoflow LC-MS/MS
T2 sequence (looked up): T1 sequence (looked up)

[3] = biological target: T2, mature GDF-8 from pooled normal human serum (human); assay: co-purification with GDF-8 on JA16-agarose from human serum, LC-MS/MS
[4] = biological target: T3, mature GDF-8 from normal mouse serum (mouse) (UniProt O08689); assay: co-purification with GDF-8 on JA16-agarose from mouse serum, silver stained gel
T3 sequence (looked up): T1 sequence (looked up)

[5] = biological target: T3, mature GDF-8 from normal mouse serum (mouse); assay: co-purification with GDF-8 on JA16-agarose from mouse serum, MS/MS and western blot
[6] = biological target: T3, mature GDF-8 from normal mouse serum (mouse); assay: large scale JA16 immunoprecipitation from mouse serum, nanoflow-LC-MS/MS
[7] = biological target: T3, mature GDF-8 from normal mouse serum (mouse); assay: co-purification with GDF-8 on JA16-agarose, MS/MS and western blot
[8] = biological target: T3, mature GDF-8 from normal mouse serum (mouse); assay: co-purification with GDF-8 on JA16-agarose from mouse serum, MS/MS
[9] = biological target: T3, mature GDF-8 from normal mouse serum (mouse); assay: co-purification with GDF-8 on JA16-agarose from mouse serum, MS/MS against the Celera database
[10] = biological target: T3, mature GDF-8 from normal mouse serum (mouse); assay: co-purification with GDF-8 on JA16-agarose from serum, MS/MS
[11] = biological target: T4, recombinant purified GDF-8 propeptide protein (UniProt O14793); assay: co-immunoprecipitation with anti-V5 agarose, anti-propeptide western blot
T4 sequence (looked up): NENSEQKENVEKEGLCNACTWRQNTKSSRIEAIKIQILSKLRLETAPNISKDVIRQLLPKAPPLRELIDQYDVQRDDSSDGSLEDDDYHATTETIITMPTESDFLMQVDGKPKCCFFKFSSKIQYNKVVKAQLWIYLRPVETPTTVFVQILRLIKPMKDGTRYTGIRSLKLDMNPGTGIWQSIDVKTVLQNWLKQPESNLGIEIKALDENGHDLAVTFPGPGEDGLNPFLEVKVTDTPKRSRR

[12] = biological target: T4, recombinant purified GDF-8 propeptide protein; assay: co-immunoprecipitation (JA16 or anti-V5), western blot

- binding [1]: binds
Molecule: recombinant purified GDF-8 propeptide protein (from UniProt O14793 24-266)

- binding [2]: binds
- binding [3]: binds
Molecule: GDF-8 propeptide from pooled normal human serum (from UniProt O14793 24-266)

- binding [4]: binds
- binding [5]: binds
- binding [6]: binds
- binding [7]: binds
B1: follistatin-like related gene (FLRG) from normal mouse serum (protein, UniProt Q9EQC7 24-256, looked up)
chain: VMGSEDSVPGGVCWLQQGREATCSLVLKTRVSREECCASGNINTAWSNFTHPGNKISLLGFLGLVHCLPCKDSCDGVECGPGKACRMLGGRPHCECVPNCEGLPAGFQVCGSDGATYRDECELRTARCRGHPDLRVMYRGRCQKSCAQVVCPRPQSCLVDQTGSAHCVVCRAAPCPVPSNPGQELCGNNNVTYISSCHLRQATCFLGRSIGVRHPGICTGGPKVPAEEEENFV

- binding [2]: binds
- binding [3]: binds
B2: human FLRG from pooled normal human serum (protein, UniProt O95633 27-263, looked up)
chain: MGSGNPAPGGVCWLQQGQEATCSLVLQTDVTRAECCASGNIDTAWSNLTHPGNKINLLGFLGLVHCLPCKDSCDGVECGPGKACRMLGGRPRCECAPDCSGLPARLQVCGSDGATYRDECELRAARCRGHPDLSVMYRGRCRKSCEHVVCPRPQSCVVDQTGSAHCVVCRAAPCPVPSSPGQELCGNNNVTYISSCHMRQATCFLGRSIGVRHAGSCAGTPEEPPGGESAEEEENFV

- binding [4]: binds
- binding [5]: binds
- binding [6]: binds
- binding [7]: binds
B3: GDF-8 propeptide from normal mouse serum (protein, UniProt O08689 25-267, looked up)
chain: NEGSEREENVEKEGLCNACAWRQNTRYSRIEAIKIQILSKLRLETAPNISKDAIRQLLPRAPPLRELIDQYDVQRDDSSDGSLEDDDYHATTETIITMPTESDFLMQADGKPKCCFFKFSSKIQYNKVVKAQLWIYLRPVKTPTTVFVQILRLIKPMKDGTRYTGIRSLKLDMSPGTGIWQSIDVKTVLQNWLKQPESNLGIEIKALDENGHDLAVTFPGPGEDGLNPFLEVKVTDTPKRSRR

- binding [8]: binds
- binding [9]: binds
- binding [6]: binds
- binding [10]: binds
B4: GDF-associated serum protein 1 (GASP1) from normal mouse serum (protein)
chain: LPPIRYSHAGICPNDMNPNLWVDAQSTCKRECETDQECETYEKCCPNVCGTKSCVAARYMDVKGKKGPVGMPKEATCDHFMCLQQGSECDIWDGQPVCKCKDRCEKEPSFTCASDGLTYYNRCFMDAEACSKGITLSVVTCRYHFTWPNTSPPPPETTVHPTTASPETLGLDMAAPALLNHPVHQSVTVGETVSFLCDVVGRPRPELTWEKQLEDRENVVMRPNHVRGNVVVTNIAQLVIYNVQPQDAGIYTCTARNVAGVLRADFPLSVVRGGQARATSESSLNGTAFPATECLKPPDSEDCGEEQTRWHFDAQANNCLTFTFGHCHHNLNHFETYEACMLACMSGPLATCSLPALQGPCKAYVPRWAYNSQTGLCQSFVYGGCEGNGNNFESREACEESCPFPRGNQHCRACKPRQKLVTSFCRSDFVILGRVSELTEEQDSGRALVTVDEVLKDEKMGLKFLGREPLEVTLLHVDWTCPCPNVTVGETPLIIMGEVDGGMAMLRPDSFVGASSTRRVRKLREVMYKKTCDVLKDFLGLQ

- binding [11]: binds
- binding [12]: binds
B5: mouse GASP1 cloned with a C-terminal V5-His tag (GASP1-V5-His) (other, not shown: small tags and cut ends)
chain: B4 chain
